Among the data in PMC8891334 are binding values, retold here.

Amino acid sequences for entries named in this document (tags omitted).
UniProt O82486: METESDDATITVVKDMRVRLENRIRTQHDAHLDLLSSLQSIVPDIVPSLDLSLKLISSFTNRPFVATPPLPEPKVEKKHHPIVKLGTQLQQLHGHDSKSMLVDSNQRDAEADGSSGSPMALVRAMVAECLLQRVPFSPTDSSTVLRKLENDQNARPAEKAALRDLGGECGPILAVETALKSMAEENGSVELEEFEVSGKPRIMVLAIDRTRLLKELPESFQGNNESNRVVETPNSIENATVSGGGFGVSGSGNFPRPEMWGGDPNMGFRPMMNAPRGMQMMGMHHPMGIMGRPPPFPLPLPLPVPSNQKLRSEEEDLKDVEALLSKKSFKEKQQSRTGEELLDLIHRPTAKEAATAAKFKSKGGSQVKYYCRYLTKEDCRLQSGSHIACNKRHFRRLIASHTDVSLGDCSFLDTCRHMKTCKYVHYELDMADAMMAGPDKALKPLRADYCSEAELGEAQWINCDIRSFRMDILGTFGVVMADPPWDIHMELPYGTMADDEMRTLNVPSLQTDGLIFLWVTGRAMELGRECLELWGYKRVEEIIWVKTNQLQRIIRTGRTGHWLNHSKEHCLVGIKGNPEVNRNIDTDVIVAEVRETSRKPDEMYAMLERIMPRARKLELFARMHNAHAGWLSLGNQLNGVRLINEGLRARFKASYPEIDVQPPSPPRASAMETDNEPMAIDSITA
UniProt F4J8G7: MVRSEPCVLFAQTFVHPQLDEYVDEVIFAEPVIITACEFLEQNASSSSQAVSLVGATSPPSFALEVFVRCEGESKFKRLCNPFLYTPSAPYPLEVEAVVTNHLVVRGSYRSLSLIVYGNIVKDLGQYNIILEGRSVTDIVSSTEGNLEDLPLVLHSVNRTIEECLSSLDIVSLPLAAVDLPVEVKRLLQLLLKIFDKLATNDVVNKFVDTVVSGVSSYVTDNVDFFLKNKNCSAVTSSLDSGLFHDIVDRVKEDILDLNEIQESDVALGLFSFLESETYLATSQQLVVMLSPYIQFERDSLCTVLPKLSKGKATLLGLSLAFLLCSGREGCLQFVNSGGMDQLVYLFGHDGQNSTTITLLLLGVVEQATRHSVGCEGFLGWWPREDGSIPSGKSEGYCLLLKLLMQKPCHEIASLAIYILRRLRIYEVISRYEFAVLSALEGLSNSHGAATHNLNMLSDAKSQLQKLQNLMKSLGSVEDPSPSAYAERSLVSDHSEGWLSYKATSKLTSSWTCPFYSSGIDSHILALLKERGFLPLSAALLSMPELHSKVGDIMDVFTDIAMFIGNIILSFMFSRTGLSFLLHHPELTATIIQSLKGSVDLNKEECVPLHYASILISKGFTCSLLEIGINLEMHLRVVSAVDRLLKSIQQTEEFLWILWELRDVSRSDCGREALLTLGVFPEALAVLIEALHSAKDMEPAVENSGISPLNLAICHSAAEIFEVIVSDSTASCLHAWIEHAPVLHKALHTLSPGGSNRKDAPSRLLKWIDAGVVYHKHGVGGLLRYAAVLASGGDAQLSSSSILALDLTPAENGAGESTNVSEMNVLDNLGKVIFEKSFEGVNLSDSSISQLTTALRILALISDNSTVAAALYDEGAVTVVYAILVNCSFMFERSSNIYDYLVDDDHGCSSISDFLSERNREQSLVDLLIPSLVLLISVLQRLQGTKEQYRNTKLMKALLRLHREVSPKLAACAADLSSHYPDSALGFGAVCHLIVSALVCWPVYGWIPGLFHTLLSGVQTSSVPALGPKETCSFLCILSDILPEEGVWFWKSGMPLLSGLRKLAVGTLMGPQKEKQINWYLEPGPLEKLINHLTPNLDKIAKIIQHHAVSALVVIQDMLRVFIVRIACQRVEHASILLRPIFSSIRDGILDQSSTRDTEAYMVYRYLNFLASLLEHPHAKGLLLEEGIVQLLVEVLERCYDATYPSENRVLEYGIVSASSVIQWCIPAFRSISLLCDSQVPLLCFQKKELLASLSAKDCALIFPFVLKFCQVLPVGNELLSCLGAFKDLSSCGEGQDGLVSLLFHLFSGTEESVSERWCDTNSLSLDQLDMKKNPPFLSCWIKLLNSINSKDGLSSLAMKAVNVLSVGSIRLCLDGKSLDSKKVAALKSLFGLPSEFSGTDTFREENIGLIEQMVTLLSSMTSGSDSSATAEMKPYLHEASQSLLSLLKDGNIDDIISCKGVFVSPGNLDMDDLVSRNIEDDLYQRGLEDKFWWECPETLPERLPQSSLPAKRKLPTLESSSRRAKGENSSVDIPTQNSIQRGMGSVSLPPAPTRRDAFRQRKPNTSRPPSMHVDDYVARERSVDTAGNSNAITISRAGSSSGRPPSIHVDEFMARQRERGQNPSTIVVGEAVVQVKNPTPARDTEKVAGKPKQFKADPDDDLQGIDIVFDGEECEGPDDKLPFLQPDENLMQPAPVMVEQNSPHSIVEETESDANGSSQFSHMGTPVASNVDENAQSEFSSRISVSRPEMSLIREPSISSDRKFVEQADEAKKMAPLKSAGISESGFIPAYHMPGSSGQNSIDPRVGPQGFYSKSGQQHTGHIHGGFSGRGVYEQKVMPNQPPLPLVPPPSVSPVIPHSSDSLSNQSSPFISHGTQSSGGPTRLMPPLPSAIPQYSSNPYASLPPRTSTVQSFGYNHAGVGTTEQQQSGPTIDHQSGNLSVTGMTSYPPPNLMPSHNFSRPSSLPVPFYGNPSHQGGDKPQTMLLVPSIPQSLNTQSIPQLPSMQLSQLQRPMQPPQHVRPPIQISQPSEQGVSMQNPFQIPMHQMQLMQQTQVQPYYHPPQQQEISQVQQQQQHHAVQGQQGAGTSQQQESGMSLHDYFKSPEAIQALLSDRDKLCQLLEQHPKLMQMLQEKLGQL

No constants are given. Whether binding was seen depends on the method and setting. Binding seen in cells or lysates may run through a third protein. A yes stands for co-enrichment or nearness to the bait. Other partners may have been found. For some assays here: A no says only that the protein was not detected with the bait. For some assays here: Sequences can lack the tags named with a protein.

Holding throughout (assay): affinity purification with mass spectrometry; in vivo interaction proteomics (IVI-MS): 2-week-old seedlings crosslinked with 1% formaldehyde, nuclei isolated and lysed, GFP-tagged bait held on GFP-Trap_A agarose beads (5 h, 4 °C), crosslinks reversed, LFQ mass spectrometry against WT; lines HAKAIpro:HAKAI-GFP/hakai and MTApro:MTA-GFP/mta
Assay [1] deals with T1, GFP-tagged HAKAI (Arabidopsis) (UniProt Q9LFC0).
T1 sequence: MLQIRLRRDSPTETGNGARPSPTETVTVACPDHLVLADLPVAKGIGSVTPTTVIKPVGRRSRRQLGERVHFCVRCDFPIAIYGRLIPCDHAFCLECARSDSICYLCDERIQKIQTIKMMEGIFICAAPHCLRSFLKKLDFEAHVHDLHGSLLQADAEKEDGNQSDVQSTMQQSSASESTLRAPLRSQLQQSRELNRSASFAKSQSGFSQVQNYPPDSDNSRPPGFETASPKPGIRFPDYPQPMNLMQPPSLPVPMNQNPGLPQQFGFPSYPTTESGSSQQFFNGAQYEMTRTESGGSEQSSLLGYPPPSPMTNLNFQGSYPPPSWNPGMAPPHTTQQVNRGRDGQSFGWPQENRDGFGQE

The target of assay [2] is GFP-tagged MTA (mRNA adenosine methylase A) (Arabidopsis) (UniProt O82486).
Assay [3] deals with T2, GFP-tagged HAKAI (Arabidopsis), Q9LFC0.
T2 chain: T1 sequence
To be noted: remark: other sources report otherwise.

Take “HAKAI-interacting zinc finger protein 2 (HIZ2) (Arabidopsis (endogenous in seedlings))”: the binding entry in assay [1] is recorded as “binds”.

Take “mRNA adenosine methylase A (MTA) (from UniProt O82486 1-685)”: the binding result in assay [1] was “binds”.

In the case of “VIRILIZER (VIR) (from UniProt F4J8G7 1-2138)”, the binding result in assay [1] and in assay [2] was “binds” throughout.

B1: mRNA adenosine methylase B (MTB) (protein, UniProt Q94AI4 1-775)
chain: MKKKQEESSLEKLSTWYQDGEQDGGDRSEKRRMSLKASDFESSSRSGGSKSKEDNKSVVDVEHQDRDSKRERDGRERTHGSSSDSSKRKRWDEAGGLVNDGDHKSSKLSDSRHDSGGERVSVSNEHGESRRDLKSDRSLKTSSRDEKSKSRGVKDDDRGSPLKKTSGKDGSEVVREVGRSNRSKTPDADYEKEKYSRKDERSRGRDDGWSDRDRDQEGLKDNWKRRHSSSGDKDQKDGDLLYDRGREREFPRQGRERSEGERSHGRLGGRKDGNRGEAVKALSSGGVSNENYDVIEIQTKPHDYVRGESGPNFARMTESGQQPPKKPSNNEEEWAHNQEGRQRSETFGFGSYGEDSRDEAGEASSDYSGAKARNQRGSTPGRTNFVQTPNRGYQTPQGTRGNRPLRGGKGRPAGGRENQQGAIPMPIMGSPFANLGMPPPSPIHSLTPGMSPIPGTSVTPVFMPPFAPTLIWPGARGVDGNMLPVPPVLSPLPPGPSGPRFPSIGTPPNPNMFFTPPGSDRGGPPNFPGSNISGQMGRGMPSDKTSGGWVPPRGGGPPGKAPSRGEQNDYSQNFVDTGMRPQNFIRELELTNVEDYPKLRELIQKKDEIVSNSASAPMYLKGDLHEVELSPELFGTKFDVILVDPPWEEYVHRAPGVSDSMEYWTFEDIINLKIEAIADTPSFLFLWVGDGVGLEQGRQCLKKWGFRRCEDICWVKTNKSNAAPTLRHDSRTVFQRSKEHCLMGIKGTVRRSTDGHIIHANIDTDVIIAEEPPYG
Consider B1, for which the binding entry in assay [2] is listed as “binds”.

B2: mRNA adenosine methylase B (MTB), Q94AI4 1-775 (protein)
chain: B1 chain
Take B2: in assay [3], the binding entry is reported as “no binding”.

B3: HAKAI (protein, UniProt Q9LFC0 1-360)
chain: T1 sequence
As for B3, in assay [2], the binding entry is on record as “binds”.

B4: heat shock protein 70 family member Hsp70-15 (protein, UniProt F4HQD4 1-831)
chain: MSVVGFDFGNENCLVAVARQRGIDVVLNDESNRETPAIVCFGDKQRFIGTAGAASTMMNPKNSISQIKRLIGRQFSDPELQRDIKSLPFSVTEGPDGYPLIHANYLGEIRAFTPTQVMGMMLSNLKGIAEKNLNTAVVDCCIGIPVYFTDLQRRAVLDAATIAGLHPLHLIHETTATALAYGIYKTDLPENDQLNVAFIDIGHASMQVCIAGFKKGQLKILSHAFDRSLGGRDFDEVLFNHFAAKFKDEYKIDVSQNAKASLRLRATCEKLKKVLSANPMAPLNIECLMAEKDVRGVIKREEFEEISIPILERVKRPLEKALSDAGLTVEDVHMVEVVGSGSRVPAMIKILTEFFGKEPRRTMNASECVSRGCALQCAILSPTFKVREFQVHESFPFSISLAWKGAATDAQNGGTENQQSTIVFPKGNPIPSVKALTFYRSGTFSIDVQYSDVNDLQAPPKISTYTIGPFQSSKGERAKLKVKVRLNLHGIVSVESATLLEEEEVEVSVTKDQSEETAKMDTDKASAEAAPASGDSDVNMQDAKDTSDATGTDNGVPESAEKPVQMETDSKAEAPKKKVKKTNVPLSELVYGALKTVEVEKAVEKEFEMALQDRVMEETKDRKNAVESYVYDMRNKLSDKYQEYITDSEREAFLANLQEVEDWLYEDGEDETKGVYVAKLEELKKVGDPVEVRYKESLERGSVIDQLGYCINSYREAAVSNDPKFDHIELAEKQKVLNECVEAEAWLREKQQQQDTLPKYATPALLSADVKSKAEALDKFCRPIMTKPKPAAKAEAPQAKGGEQADEGKSEPEQPASAEAMETENPAEGST
In the case of B4, the binding result in assay [1] is given as “binds”.

B5: HAKAI-interacting zinc finger protein 1 (HIZ1) (protein, UniProt Q9LQM3 1-384)
chain: MSHHRRDSGGDVVHVIPTNNPPPDNWFPNLGDSAVWATEDDYNRAWAMNPDNTSGDNNGPPNKKTRGSPSSSSATTTSAASNRTKAIGKMFFKTKLCCKFRAGTCPYITNCNFAHTVEELRRPPPNWQEIVAAHEEERSGGMGTPTVSVVEIPREEFQIPSLVSSTAESGRSFKGRHCKKFYTEEGCPYGESCTFLHDEASRNRESVAISLGPGGYGSGGGGGSGGGSVGGGGSSSNVVVLGGGGGSGSGSGIQILKPSNWKTRICNKWEITGYCPFGAKCHFAHGAAELHRFGGGLVEEEGKDGVSPNPDTKQTVQNPKGLSDTTTLLSPGVPHNADASYHTGVALQRASSAVTQKPGIRTHQKWKGPAKISRIYGDWIDDIE
Regarding B5, in assay [1], the binding result was “binds”.

B6: FKBP12 interacting protein 37 (FIP37) (protein, UniProt Q9ZSZ8 1-330)
chain: MEFSSQDDDFGGDDSAANATRASGNRRSFGDLEDDEDDIFGSTTVAPGVRTGMILSLRGSLKNCKDDLASCQNELESAKTEIQKWKSAFQNESFVPAGKSPEPRFLIDYIQNLKSSEKSLKEQLEIAKRKEASCIVQYAKREQEMAELKSAVRDLKSQLKPASMQARRLLLDPAIHEEFSRLKNLVEEKDKKIKELQDNIAAVTFTPQSKNGKMLMAKCRTLQEENEEIGHQAAEGKIHELAIKLAMQKSQNAELRSQFEGLYKHMEELTNDVERSNETVIILQEKLEEKEKEIERVKKGLEIVSELVGDKKDEVDEIDEDAKEEIAGGE
Consider B6, for which the binding entry in assay [1] and in assay [2] was “binds” in each case.
